For at least one compound, name, drawing or mass did not settle the structure.
System: rat heart cells (ventricular cardiomyocytes)
Test: Oxygen and glucose deprivation / reoxygenation induced necrosis of heart cells
Assay type: cell-based
Conditions: necrosis after 3 hours of reoxygenation

With `C/C=C/C[C@@H](C)[C@@H](O)[C@H]1C(=O)N[C@@H](CC)C(=O)N(C)C(Cc2ccc(C(=O)NCCOCCNC(=O)CC[P+](c3ccccc3)(c3ccccc3)c3ccccc3)cc2)C(=O)N(C)[C@@H](CC(C)C)C(=O)N[C@@H](C(C)C)C(=O)N(C)[C@@H](CC(C)C)C(=O)N[C@@H](C)C(=O)N[C@H](C)C(=O)N(C)[C@@H](CC(C)C)C(=O)N(C)[C@@H](CC(C)C)C(=O)N(C)[C@@H](C(C)C)C(=O)N1C` (stereo partly drawn) [Compound 3, 12-(4-(((5S,8S,11S,14S,17R,20S,23S,26S,29S,32S)-32-ethyl-29-((1R,2R,E)-1-hydroxy-2-methylhex-4-enyl)-5,11,20,23-tetraisobutyl-8,26-diisopropyl-1,4,10,14,17,19,22,25,28-nonamethyl-3,6,9,12,15,18,21,24,27,30,33-undecaoxo-1,4,7,10,13,16,19,22,25,28,31-undecaazacyclotritriacontan-2-yl)methyl)phenyl)-4,12-dioxo-1,1,1-triphenyl-8-oxa-5,11-diaza-1-phosphoniadodecane] the “cytoprotection at 3 nM” value (3 nM) was “similarly effective” and the “cytoprotection at 15 nM” value (15 nM) was “complete protection”.
